# Most entries show no effect beyond the scatter of the controls.
# Assays:
# Test in all cases: normalised response (% of control), CellTox Green; higher = less cell death (100 = DMSO, 0 = benzethonium chloride kill control)
# Details in all cases: incubation time: 72 h
# HCC1599 = test system: HCC1599
# Protocol: (§1)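 DSRT, 72 h incubation, CellTox Green / CellTiter-Glo readout. Signal is normalised to DMSO and benzethonium chloride controls. Value is the normalised response at dose 2.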
# CAL-120 = test system: CAL-120
# Protocol: as §1
# MDA-MB-436 = test system: MDA-MB-436
# Protocol: as §1
# CAL-85-1 = test system: CAL-85-1
# Protocol: as §1
# HDQ-P1 = test system: HDQ-P1
# Protocol: as §1
# CAL-51 = test system: CAL-51
# Protocol: as §1
# DU-4475 = test system: DU-4475
# Protocol: as §1
# CAL-148 = test system: CAL-148
# Protocol: as §1
# BT-474 = test system: BT-474
# Protocol: as §1
# BT-549 = test system: BT-549
# Protocol: as §1
# MCF-10A = test system: MCF-10A
# Protocol: as §1
# MDA-MB-453 = test system: MDA-MB-453
# Protocol: as §1
# MDA-MB-231 = test system: MDA-MB-231
# Protocol: as §1
# MFM-223 = test system: MFM-223
# Protocol: as §1
# MDA-MB-468 = test system: MDA-MB-468
# Protocol: as §1
# Hs578T = test system: Hs578T
# Protocol: as §1
# HCC1937 = test system: HCC1937
# Protocol: as §1
# HCC1143 = test system: HCC1143
# Protocol: as §1
Structure (SMILES),normalised response (HCC1599),normalised response (CAL-120),normalised response (MDA-MB-436),normalised response (CAL-85-1),normalised response (HDQ-P1),normalised response (CAL-51),normalised response (DU-4475),normalised response (CAL-148),normalised response (BT-474),normalised response (BT-549),normalised response (MCF-10A),normalised response (MDA-MB-453),normalised response (MDA-MB-231),normalised response (MFM-223),normalised response (MDA-MB-468),normalised response (Hs578T),normalised response (HCC1937),normalised response (HCC1143)
COc1ncc(-c2ccc3nccc(-c4ccnnc4)c3c2)cc1NS(=O)(=O)c1ccc(F)cc1F (1 nM),118%,102%,108%,98.1%,121%,114%,110%,111%,103%,99.2%,112%,101%,103%,104%,60.6%,115%,113%,110%
Nc1nccc(-c2c(-c3ccc(F)cc3)ncn2C2CCCCC2)n1 (10 nM),110%,99.3%,69.4%,104%,97.4%,116%,104%,98.5%,103%,93.9%,100%,75.8%,109%,93.5%,131%,92.1%,120%,101%
O=C(/C=C/c1cccc(S(=O)(=O)Nc2ccccc2)c1)NO [Belinostat] (10 nM),103%,99.6%,55.3%,91.8%,117%,70.4%,107%,98.3%,92.2%,111%,111%,105%,81%,101%,57.9%,94.7%,75.3%,–
CCN(CC)CCCC(C)Nc1ccnc2cc(Cl)ccc12 (stereo not drawn) [Chloroquine] (100 nM),119%,102%,–,110%,104%,68.2%,98.5%,109%,105%,100%,81.1%,98.9%,114%,103%,105%,130%,123%,–
COc1nc(N)nc2c1ncn2[C@@H]1O[C@H](CO)[C@@H](O)[C@@H]1O [Nelarabine] (10 nM),88.7%,98.5%,–,91.8%,98.2%,64.3%,92.5%,97%,100%,79.5%,–,95.5%,92.3%,99.2%,81%,101%,61.6%,73.3%
CCC(C)(C)C(=O)O[C@H]1C[C@@H](C)C=C2C=C[C@H](C)[C@H](CC[C@@H]3C[C@@H](O)CC(=O)O3)[C@H]21 [Simvastatin] (10 nM),93.8%,99%,103%,97.3%,102%,115%,98%,96.1%,–,94.1%,74.8%,96.5%,–,81.2%,68.5%,130%,97.6%,110%
COc1cc2c(NC3CCN(C(C)C)CC3)nc(C3CCCCC3)nc2cc1OCCCN1CCCC1 [UNC0638] (10 nM),95.4%,97.7%,100%,101%,121%,93.7%,97%,–,99.3%,98.5%,90.5%,–,91%,89.8%,97%,111%,92.4%,61.2%
CC[C@]1(O)C[C@H]2CN(CCc3c([nH]c4ccccc34)[C@@](C(=O)OC)(c3cc4c(cc3OC)N(C=O)[C@H]3[C@@](O)(C(=O)OC)[C@H](OC(C)=O)[C@]5(CC)C=CCN6CC[C@]43[C@@H]65)C2)C1 [Vincristine] (1 nM),94.5%,103%,106%,99.1%,–,92%,103%,108%,102%,99.3%,116%,99.4%,111%,98.5%,67.2%,122%,101%,113%

# Reference: the supplement of paper PMC4862054
